Record: PubChem BioAssay AID1159595 (NIAID, 2016)
Here is one part, drawn at random, of 756 deposited reagents. In the full data, 115 (15%) got an active call. 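Active calls cover both lowered and raised reporter signal; each score refers to one siRNA rather than a whole gene.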 Reagents against one gene are numbered here. The record does not give: the amount of reagent.

- Purpose: 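Contribution of 126 core TLR signalling genes to the Pam3CSK4 inflammatory response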 (primary screen)
- Cell system: mouse RAW264.7 macrophage reporter cells
- Knock-down reagent: single siRNA against mouse genes
- Timing: assayed 48 to 72 hours after siRNA transfection; ligand applied for 16 hours
- Challenge: Pam3CSK4 (TLR2 ligand) for 16 hours before fixation; dose not given
- Detection: 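High-content imaging of Tnf promoter-driven nuclear mCherry in cells given Pam3CSK4 for 16 h, 48–72 h after transfection; value is the replicate mean of plate-normalised background-corrected robust z-scores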
- Reading the numbers: Tnf reporter z-score (replicate mean): higher = stronger Tnf promoter reporter signal than negative control wells
- Hit rule: 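Calls apply to single siRNAs, not genes: activity graded at absolute z of 1, 1.5, 2 and 2.5, and active means averaged z at or beyond ±1.5, i.e. activity score 50 or above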
- Meaning of the calls: active = strong change (up or down); inactive = little change

Ube2v1 #1
- Tnf reporter z-score (replicate mean): -0.408
- outcome: inactive

Ube2v1 #2
- Tnf reporter z-score (replicate mean): 0.42
- outcome: inactive

Ube2v1 #3
- Tnf reporter z-score (replicate mean): 0.203
- outcome: inactive

Ube2v1 #4
- Tnf reporter z-score (replicate mean): 0.224
- outcome: inactive

Ube2v1 #5
- Tnf reporter z-score (replicate mean): 2.63
- outcome: active

Ube2v1 #6
- Tnf reporter z-score (replicate mean): -2.57
- outcome: active

Reprinted from the entries so far, 2 entries:
Ube2v1 #1
- Tnf reporter z-score (replicate mean): -0.408
- outcome: inactive

Ube2v1 #2
- Tnf reporter z-score (replicate mean): 0.42
- outcome: inactive

Additional reagents follow:
Map2k2 #1
- Tnf reporter z-score (replicate mean): 0.398
- outcome: inactive

Map2k2 #2
- Tnf reporter z-score (replicate mean): -0.813
- outcome: inactive

Map2k2 #3
- Tnf reporter z-score (replicate mean): -0.894
- outcome: inactive

Map2k2 #4
- Tnf reporter z-score (replicate mean): -0.694
- outcome: inactive

Map2k2 #5
- Tnf reporter z-score (replicate mean): -0.92
- outcome: inactive

Map2k2 #6
- Tnf reporter z-score (replicate mean): -1.11
- outcome: inactive

Traf3 #1
- Tnf reporter z-score (replicate mean): -0.899
- outcome: inactive

Traf3 #2
- Tnf reporter z-score (replicate mean): -0.569
- outcome: inactive

Traf3 #3
- Tnf reporter z-score (replicate mean): -0.103
- outcome: inactive

Traf3 #4
- Tnf reporter z-score (replicate mean): 0.309
- outcome: inactive

Traf3 #5
- Tnf reporter z-score (replicate mean): -1.41
- outcome: inactive

Traf3 #6
- Tnf reporter z-score (replicate mean): 0.00478
- outcome: inactive
